Data reported in PubChem BioAssay AID330 (DTP/NCI, 2004).
The list does not hold the whole screen: it gathers tests that were run many times, whatever their T/C, doses with no T/C, and many T/C values between a quarter and a half above the control. Further doses and runs are listed elsewhere. T/C is the treated group as % of the vehicle group. Some doses have a count of surviving animals in place of a T/C: the source files T/C as zero there, which appears to mark a toxic dose or a test without result, not a measured value. Some doses without a T/C left all or most animals alive at the check, yet need not have been tolerated: the source hardly ever lists a survival T/C far under the control, and the zero likely stands for such cases as well. Counts of survivors are from the toxicity check (mostly the fifth day) where no day follows; animals may have died later. Schedule codes are those of the source, read here as Q, the interval in days (D) or hours (H), X, the number of doses. Some doses were run more than once; the results are listed from low to high. Signs of the kind (2×) count equal records among those shown. For survival time, the PubChem record calls one and a half times the control and up active, and a quarter to a half above the control has no call in these data; cut-offs in other NCI protocols can differ. Some T/C values carry the count of animals alive at the toxicity check (mostly the fifth day); without a count, all were alive then.

Tested on: P388 leukemia ip, CD2F1 mice, survival T/C
Assay: NCI In Vivo Anticancer Drug Screen. Data for tumor model P388 Leukemia (intraperitoneal) in CD2F1 (CDF1) mice
Conditions: T/C endpoint: median survival time, higher T/C = longer survival
[1] = dose: 50.0 mg/kg/injection, schedule: Q04DX003 (ip), vehicle: water
[2] = dose: 50.0 mg/kg/injection, schedule: Q01DX005 (ip), vehicle: Klucel (hydroxypropylcellulose) (HPC)
[3] = dose: 100.0 mg/kg/injection, schedule: Q01DX005 (ip), vehicle: Klucel (hydroxypropylcellulose) (HPC)
[4] = dose: 200.0 mg/kg/injection, schedule: Q01DX005 (ip), vehicle: Klucel (hydroxypropylcellulose) (HPC)
[5] = dose: 60.0 mg/kg/injection, schedule: Q01DX005 (ip), vehicle: saline with Tween-80
[6] = dose: 240.0 mg/kg/injection, schedule: Q01DX005 (ip), vehicle: saline with Tween-80
[7] = dose: 200.0 mg/kg/injection, schedule: Q01DX005 (ip), vehicle: saline with Tween-80
[8] = dose: 100.0 mg/kg/injection, schedule: Q01DX009 (ip), vehicle: saline with Tween-80
[9] = dose: 200.0 mg/kg/injection, schedule: Q01DX009 (ip), vehicle: saline with Tween-80

Compound: N#[O+].O.O=N[O-].O=N[O-].O=N[O-].O=N[O-].[Ru]
- T/C (dose: 12.5 mg/kg/injection, schedule: Q04DX003 (ip), vehicle: water): 92, 104, 105, 125 % of control
- T/C (dose: 25.0 mg/kg/injection, schedule: Q04DX003 (ip), vehicle: water): 105, 106, 116, 122 % of control
- T/C [1]: 105 [5 of 6 alive], 112, 131 % of control
- survivor count [1]: 6 of 6
- survivor count (dose: 100.0 mg/kg/injection, schedule: Q04DX003 (ip), vehicle: water): 2 of 6 (2×) and 4 of 6
- survivor count (dose: 200.0 mg/kg/injection, schedule: Q04DX003 (ip), vehicle: water): 0 of 6

Compound: NC(Cc1csc2ccc(Cl)cc12)C(=O)O (stereo unspecified)
- survivor count (dose: 200.0 mg/kg/injection, schedule: Q01DX001 (ip), vehicle: Klucel (hydroxypropylcellulose) (HPC)): 2 of 6

Compound: O=C1OCCCCCCOC(=O)c2ccccc2SSc2ccccc21
- survivor count (dose: 100.0 mg/kg/injection, schedule: Q01DX001 (ip), vehicle: saline with Tween-80): 6 of 6

Compound: Nc1cccc(CCCCc2ccccc2)c1
- survivor count (dose: 400.0 mg/kg/injection, schedule: Q04DX002 (ip), vehicle: saline): 1 of 6

Compound: CC1(C)N=C(N)N=C(N)N1c1cccc(CC(=O)Nc2ccccc2)c1
- survivor count (dose: 100.0 mg/kg/injection, schedule: Q04DX003 (ip), vehicle: saline sonified): 4 of 6
- survivor count (dose: 200.0 mg/kg/injection, schedule: Q04DX003 (ip), vehicle: saline sonified): 3 of 6
- survivor count (dose: 400.0 mg/kg/injection, schedule: Q04DX003 (ip), vehicle: saline sonified): 3 of 6

Compound: COC(=O)/C=C1\C=CC(=O)OC1O (stereo unspecified)
- survivor count [2]: 1 of 6
- survivor count [3]: 0 of 6
- survivor count [4]: 0 of 6

Compound: C1=C(N2CCCC2)C(=[N+]2CCCC2)C(N2CCCC2)=C1
- survivor count [5]: 0 of 6
- survivor count (dose: 120.0 mg/kg/injection, schedule: Q01DX005 (ip), vehicle: saline with Tween-80): 0 of 6
- survivor count [6]: 0 of 6

Compound: O=C(O)c1ccc(S(=O)(=O)OCCCl)cc1
- survivor count (dose: 50.0 mg/kg/injection, schedule: Q01DX009 (ip), vehicle: Klucel (hydroxypropylcellulose) (HPC)): 6 of 6
- survivor count (dose: 100.0 mg/kg/injection, schedule: Q01DX009 (ip), vehicle: Klucel (hydroxypropylcellulose) (HPC)): 5 of 6
- survivor count (dose: 200.0 mg/kg/injection, schedule: Q01DX009 (ip), vehicle: Klucel (hydroxypropylcellulose) (HPC)): 0 of 6

Compound: S=C=NP1(N=C=S)=NP(N=C=S)(N=C=S)=NP(N=C=S)(N=C=S)=NP(N=C=S)(N=C=S)=N1 (stereo unspecified)
- survivor count [7]: 4 of 6

Compound: CC1(C)OCC(CO)(Nc2nc(N3CC3)nc(N3CC3)n2)CO1
- T/C (dose: 0.62 mg/kg/injection, schedule: Q01DX009 (ip), vehicle: saline): 132 % of control
- survivor count (dose: 10.0 mg/kg/injection, schedule: Q01DX009 (ip), vehicle: saline): 10 of 10
- survivor count (dose: 20.0 mg/kg/injection, schedule: Q01DX009 (ip), vehicle: saline): 10 of 10
- survivor count (dose: 40.0 mg/kg/injection, schedule: Q01DX009 (ip), vehicle: saline): 2 of 10

Compound: O=C([O][Bi]([c]1ccccc1)[c]1ccccc1)c1ccccc1
- survivor count (dose: 12.5 mg/kg/injection, schedule: Q01DX005 (ip), vehicle: Klucel (hydroxypropylcellulose) (HPC)): 6 of 6
- T/C [2]: 131 [5 of 6 alive] and 147 % of control
- survivor count [3]: 3 of 6
- survivor count [4]: 0 of 6

Compound: c1ccc(CN2CCCC3CCCC32)cc1 (stereo unspecified)
- survivor count (dose: 200.0 mg/kg/injection, schedule: Q01DX001 (ip), vehicle: saline with Tween-80): 0 of 6
- survivor count (dose: 400.0 mg/kg/injection, schedule: Q01DX001 (ip), vehicle: saline with Tween-80): 0 of 6

Compound: CC(N)(Cc1ccc(O)c(O)c1)C(=O)O (stereo unspecified)
- T/C (dose: 200.0 mg/kg/injection, schedule: Q01DX009 (ip), vehicle: saline): 126 % of control

Compound: O=C(NC(Cc1ccccc1)C(=O)O)OCC1c2ccccc2-c2ccccc21 (stereo unspecified)
- survivor count [4]: 1 of 6

Compound: O=C1NC(O)c2cc(F)ccc2O1 (stereo unspecified)
- T/C [7]: 127 % of control
- survivor count (dose: 400.0 mg/kg/injection, schedule: Q01DX005 (ip), vehicle: saline with Tween-80): 0 of 5

Compound: CS/N=N/N=C(\c1ccccc1)N1CCOCC1
- survivor count [6]: 0 of 6

Compound: Cc1cccc(C)c1NC(=O)C1C(=O)C(=O)N(c2c(C)cccc2C)C1=O (stereo unspecified)
- survivor count (dose: 200.0 mg/kg/injection, schedule: Q04DX002 (ip), vehicle: saline with Tween-80): 1 of 6
- survivor count (dose: 400.0 mg/kg/injection, schedule: Q04DX002 (ip), vehicle: saline with Tween-80): 3 of 6

Compound: O=C(c1ccco1)C(O)NC(=S)c1ccc(Cl)cc1 (stereo unspecified)
- T/C [8]: 126 % of control
- T/C [9]: 126 and 130 % of control
- T/C (dose: 400.0 mg/kg/injection, schedule: Q01DX009 (ip), vehicle: saline with Tween-80): 135 % of control

Compound: O=[N+]([O-])c1ccc(/C=C\S(=O)(=O)OCCCl)cc1
- survivor count [3]: 3 of 6
- survivor count [4]: 0 of 6

Compound: C(=N\Nc1nn[nH]n1)/c1ccccc1
- survivor count (dose: 400.0 mg/kg/injection, schedule: Q01DX009 (ip), vehicle: suspension in saline): 3 of 6

Compound: CN(C)CCCNc1c2ccccc2nc2cc([N+](=O)[O-])ccc12
- T/C (dose: 0.39 mg/kg/injection, schedule: Q01DX009 (ip), vehicle: water): 133 % of control
- T/C (dose: 3.13 mg/kg/injection, schedule: Q01DX009 (ip), vehicle: water): 127 % of control
- survivor count (dose: 6.25 mg/kg/injection, schedule: Q01DX009 (ip), vehicle: water): 2 of 6
- survivor count (dose: 12.5 mg/kg/injection, schedule: Q01DX009 (ip), vehicle: water): 3 of 6
- survivor count (dose: 25.0 mg/kg/injection, schedule: Q01DX009 (ip), vehicle: water): 0 of 6
- survivor count (dose: 50.0 mg/kg/injection, schedule: Q01DX009 (ip), vehicle: water): 0 of 6
- survivor count (dose: 100.0 mg/kg/injection, schedule: Q01DX009 (ip), vehicle: water): 0 of 6
- survivor count (dose: 200.0 mg/kg/injection, schedule: Q01DX009 (ip), vehicle: water): 0 of 6

Compound: CNC(=S)N/N=C/Cn1ccc(=O)[nH]c1=O
- survivor count [4]: 3 of 6

Compound: COc1cc2c[n+](C)c3c4cc(O)ccc4ccc3c2cc1OC
- T/C (dose: 5.0 mg/kg/injection, schedule: Q01DX009 (ip), vehicle: water): 133 % of control
- T/C (dose: 10.0 mg/kg/injection, schedule: Q01DX009 (ip), vehicle: water): 133 % of control
- T/C (dose: 20.0 mg/kg/injection, schedule: Q01DX009 (ip), vehicle: water): 137 % of control
- T/C (dose: 40.0 mg/kg/injection, schedule: Q01DX009 (ip), vehicle: water): 142 % of control
- T/C (dose: 80.0 mg/kg/injection, schedule: Q01DX009 (ip), vehicle: water): 142 % of control

Compound: CCCCN(CCCC)CCNc1ccc(C)c2sc3cc(Cl)ccc3c(=O)c12
- survivor count [4]: 5 of 5

Compound: Cc1cc(OC(=O)Nc2ccc(C)c([N+](=O)[O-])c2)c(Br)cc1Cl
- survivor count (dose: 200.0 mg/kg/injection, schedule: Q01DX009 (ip), vehicle: saline + alcohol): 1 of 6

Compound: Cc1ccc(C(=O)Nc2c(C)cccc2C)cc1
- survivor count [6]: 6 of 6

Compound: Cc1cccc(Nc2nc(C)nc3[nH]cc(C)c23)c1
- survivor count [4]: 1 of 6

Compound: COc1cc(C/C(=C\c2ccc(OC)c(OCc3ccccc3)c2)[N+](=O)[O-])ccc1OCc1ccccc1
- survivor count (dose: 75.0 mg/kg/injection, schedule: Q04DX003 (ip), vehicle: Klucel (hydroxypropylcellulose) (HPC)): 6 of 6
- survivor count (dose: 150.0 mg/kg/injection, schedule: Q04DX003 (ip), vehicle: Klucel (hydroxypropylcellulose) (HPC)): 6 of 6
- survivor count (dose: 300.0 mg/kg/injection, schedule: Q04DX003 (ip), vehicle: Klucel (hydroxypropylcellulose) (HPC)): 6 of 6

Compound: CCCCOCN(COCCCC)C12CC3CC(CC(C3)C1)C2
- T/C [8]: 125 % of control
- T/C [9]: 132 % of control

Compound: Cc1cc(Cl)ccc1NC(=O)NC(C)(C)COC(=O)Nc1cccc(Cl)c1
- survivor count [5]: 6 of 6
- survivor count [6]: 6 of 6

Compound: Cc1ccc(OCC2CO2)c(Br)c1 (stereo unspecified)
- T/C (dose: 100.0 mg/kg/injection, schedule: Q01DX005 (ip), vehicle: saline with Tween-80): 130 % of control [2 of 2 alive]
